Measured values from PubChem BioAssay AID2685 (National Center for Advancing Translational Sciences (NCATS), 2010).
The other results are listed elsewhere or left out. Further columns of the screen follow, without active or inactive calls. The list favours compounds with an active or inconclusive main result. Potencies come from curve fits of mixed quality, noted in brackets.

Test: qHTS Assay for Lipid Storage Modulators in Drosophila S3 Cells;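 on cell number change: cells counted by Cell Tracker Red CMTPX staining in the red channel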
Conditions: BODIPY lipid droplet fluorescence, 18-24 h; for cell number change: measured here: cell count max response, cells fed with added oleic acid
How it was run: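 Laser-scanning cytometry quantifies lipid droplet accumulation (500–530 nm total intensity; droplet/cell object ratio) in oleic acid-fed (400 uM added) Drosophila S3 cells treated with a concentration series. 20 uM Triacsin C defined 100% inhibition.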

[1] = measured here: cell number channel AC50, cells fed with added oleic acid
[2] = measured here: lipid fluorescence (Fed channel) AC50, cells fed with added oleic acid

Row | Compound | cell number change [%] | AC50 [1] | AC50 [2]
1 | COc1cc(C(=O)OCC(=O)NC(=O)C2CCCCC2)ccc1OC(F)F | -29.1 | 0.013 µM [falling, full curve, poor fit] | 29.1 µM [falling, single point]
2 | COc1ccc(CN2CCN(C(=O)c3ccco3)CC2)cc1OC | -16.8 | – | –
3 | COc1nc(NC2CCCCC2)nc(N2CCCCCC2)n1 | -45.9 | 23.1 µM [falling, single point] | 23.1 µM [falling, single point]
4 | CN(CC(=O)Nc1cccc(F)c1)CC(=O)N1CCc2ccccc21 | 5.97 | – | 0.731 µM [rising, full curve, poor fit]
5 | O=C(NNc1ccccc1)C(CCO)C(=O)NNc1ccccc1 | 1.02 | – | –
6 | O=C(c1ccccc1)N1CCC(c2nc(-c3ccc(S(=O)(=O)NCC4CCCO4)cc3)no2)CC1 (configuration not stated) | – | – | 6.51 µM [rising, single point]
7 | CCOC(=O)c1c(C)nc(SCC(N)=O)c(C#N)c1-c1ccccc1 | 27.4 | – | 8.2 µM [rising, partial curve]
8 | O=C(CSc1nnnn1C1CCCC1)Nc1ccccc1F | 5.74 | – | 0.259 µM [rising, full curve, poor fit]
9 | c1ccc(-c2nnn(C34CC5CC(CC(C5)C3)C4)n2)cc1 | -14.6 | – | 6.51 µM [rising, single point]
10 | COc1ccccc1/C=C/C(=O)NCC(=O)N/N=C(\CCC(=O)O)c1ccccc1 | 19.8 | 2.91 µM [rising, full curve, poor fit] | –
11 | COc1ccc(S(=O)(=O)N2CCCCC2)cc1NC(=O)CCCNC(=O)c1ccc(Cl)cc1 | 27.4 | – | 9.2 µM [rising, partial curve]
12 | COc1ccc(-c2nnc(NC(=O)CSc3ccc(Cl)cc3)s2)cc1OC | – | – | 32.6 µM [rising, single point]
13 | CCn1ncc(C2=NOC(C(=O)Nc3cccnc3)C2)c1C (configuration not stated) | -31.7 | 18.4 µM [falling, partial curve] | –
14 | O/N=C/c1ccc2cccc(O)c2n1 | 41.7 | 23.1 µM [rising, single point] | –
15 | COc1ccccc1/C=C/C(=O)Nc1nc(N)n(-c2ccccc2)n1 | -11.5 | – | 5.17 µM [falling, full curve, poor fit]
16 | COc1ccccc1CN(Cc1cc2c(C)ccc(C)c2[nH]c1=O)Cc1nnnn1Cc1ccco1 | 190 | 1.84 µM [rising, full curve] | 2.91 µM [rising, partial curve]
17 | C/C(=N\NC(=O)c1cccc(S(=O)(=O)N2CCOCC2)c1)c1ccc(C)cc1 | 32.7 | 0.82 µM [rising, full curve, poor fit] | 10.3 µM [rising, partial curve, poor fit]
18 | CC1(C)Cc2ccccc2C(C(=O)c2ccccc2)=N1 | 2.48 | – | 20.6 µM [falling, single point]
19 | CCN1CCN(C(=O)c2cc3c(=O)n4ccccc4nc3s2)CC1 | -1.9 | – | 6.51 µM [rising, single point]
20 | CN1CCCN(S(=O)(=O)c2ccc3ccccc3c2)CC1 | -11.9 | – | 29.1 µM [rising, single point]
21 | CCNC(=O)c1oc2c(c1C)C(=O)CC(C)(C)C2 | -49.5 | 3.66 µM [falling, full curve] | 3.66 µM [falling, full curve]
22 | COc1ccc(CN(C)CC(=O)NC(=O)Nc2ccccc2F)cc1 | 14.9 | – | –

Entries of single compounds, looked up by structure:
`COc1ccc(CN2CCN(C(=O)c3ccco3)CC2)cc1OC` is entered as cell number change [%]: -16.8
`COc1ccccc1CN(Cc1cc2c(C)ccc(C)c2[nH]c1=O)Cc1nnnn1Cc1ccco1` is entered as cell number change [%]: 190; AC50 [1]: 1.84 µM [rising, full curve]; AC50 [2]: 2.91 µM [rising, partial curve]

Following part.

Row | Compound | cell number change [%] | AC50 [1] | AC50 [2]
23 | C=CCOC(=O)/C=C/C(=O)NC(N)=O | -35.9 | 2.59 µM [falling, full curve, poor fit] | 1.3 µM [falling, full curve]
24 | O=C(CN1CCN(Cc2ccc(Cl)cc2)CC1)N/N=C/c1c[nH]c2ccccc12 | 23.6 | – | –
25 | CN1CCN(C(=O)CCC(=O)NCc2ccc(F)cc2)CC1 | 5.49 | – | 3.66 µM [falling, single point]
26 | COc1ccc(CNC(=O)COC(=O)c2cncc(Br)c2)cc1 | 44.9 | – | –
27 | O=C(CNC(=O)c1ccc(Br)o1)NCC1CCCO1 (configuration not stated) | – | 0.231 µM [rising, full curve, poor fit] | –
28 | CC1=C([N+](=O)[O-])C(c2ccc(Cl)cc2)NC(=O)N1 (configuration not stated) | -5.41 | – | –
29 | O=C1SC(SCc2ccccc2Cl)=N/C1=C\c1ccc(C(=O)O)cc1 | 80.6 | 16.4 µM [rising, single point] | –
30 | CC(C)(CNS(=O)(=O)c1ccc(Cl)cc1)N1CCCCC1 | 0.139 | – | 29.1 µM [rising, single point]
31 | Cc1ccc(OS(=O)(=O)c2ccc(-c3csc(C)n3)s2)c(C)c1 | 32.5 | 25.9 µM [rising, single point] | –
32 | CCCNC(=O)C12CCC(C)(C(=O)O1)C2(C)C (configuration not stated) | 24.7 | – | –
33 | CC(Oc1ccc(Cl)cc1Cl)C(=O)Nc1ccc2oc(-c3ccncc3)nc2c1 (configuration not stated) | 5.53 | – | –
34 | Cc1cccc(N2C(=O)C(Cl)=C(Nc3c(C)n(C)n(-c4ccccc4)c3=O)C2=O)c1C | -0.193 | 0.651 µM [falling, single point] | 0.651 µM [falling, single point]
35 | Cc1cc(=O)c(C(=O)O)nn1-c1ccccc1F | -19.8 | – | –
36 | CC(Sc1nc2ccccc2s1)C(=O)Nc1nnc(C(C)C)s1 (configuration not stated) | 16.2 | – | 0.58 µM [falling, single point]
37 | Cc1cc(C)c(OCC(=O)Nc2nnc(C3CC3)s2)c(C)c1 | 4.02 | – | –
38 | Cc1cccc(-n2ncc3c(NCc4ccc5c(c4)OCO5)ncnc32)c1 | 3.38 | – | 1.64 µM [rising, full curve, poor fit]
39 | COc1ccc(C(C(=O)NCC2CCCO2)N(Cc2ccc(F)cc2)C(=O)CNC(=O)c2ccco2)cc1OC (configuration not stated) | -6.35 | – | 29.1 µM [falling, single point]
40 | CCOC(=O)CNC(=O)CSc1nc2sc(C)c(C)c2c(=O)n1C | 44.1 | 29.1 µM [rising, single point] | –
41 | Cc1ccc(C2=NN(Cc3nnc(-c4ccccc4)o3)C(=O)SC2)cc1 | 12.5 | – | 29.1 µM [rising, single point]
42 | O=S(=O)(N[C@@H]1C[C@H]2CC[C@@H]1C2)c1cccs1 | -9.23 | – | 0.92 µM [falling, full curve]
43 | CS(=O)(=O)Nc1nc2n(n1)C(c1ccc(F)cc1)CC(c1ccccc1)N2 (configuration not stated) | -0.543 | – | 3.26 µM [falling, single point]
44 | COc1ccccc1CNS(=O)(=O)c1c(C)[nH]c(=O)[nH]c1=O | 26.2 | – | –

Row | Compound | cell number change [%] | AC50 [1] | AC50 [2]
45 | O=C(OCc1cn(-c2ccc(Cl)c(Cl)c2)nn1)c1ccccc1Cl | 173 | – | –
46 | C/C(=N\NC(=O)C(=O)N/N=C(\C)c1cccc(O)c1)c1cccc(O)c1 | 11.2 | – | 32.6 µM [falling, partial curve, poor fit]
47 | COc1ccc(OC)c(NC(=S)N2CCN(C(=O)C3CCCO3)CC2)c1 (configuration not stated) | 2.83 | – | –
48 | CCOc1ccc(-c2csc(NC(=O)c3ccc(S(=O)(=O)N4CCc5ccccc5C4)cc3)n2)cc1 | 0.249 | – | –
49 | O=C(c1ccc(Cl)c(S(=O)(=O)N2CCCCCC2)c1)N1CCOCC1 | -0.565 | – | 0.411 µM [falling, full curve]
50 | CC1CCN(C(=S)Nc2ccc(SC(F)F)cc2)CC1 | -16.7 | – | –
51 | Cc1ccc(/C=N/Nc2ccc(Cl)c(C(=O)O)c2)s1 | 11.5 | – | 14.6 µM [rising, partial curve]
52 | COc1cc(N2C(=O)C=CC2=O)c(OC)cc1Cl | -67.3 | 7.31 µM [falling, partial curve] | 5.8 µM [falling, partial curve]
53 | Cc1ccc(CN(c2ccc(C(=O)NCc3cccnc3)cc2)S(C)(=O)=O)cc1 | 23.2 | 1.03 µM [rising, full curve, poor fit] | –
54 | N#Cc1nc(COc2ccccc2F)oc1N1CCCCCC1 | 128 | 13 µM [rising, partial curve] | 18.4 µM [rising, partial curve]
55 | Cc1cc(C(=O)NCc2ccco2)no1 | -4.94 | – | –
56 | COc1ccc2nc(SCC(=O)N3CCN(c4ccc(F)cc4)CC3)c(C#N)cc2c1 | -26.1 | – | 29.1 µM [falling, single point]
57 | COc1cc(N2C(=O)c3ccccc3C2=O)c(Cl)cc1C(=O)OCC(=O)N1CCOCC1 | – | – | 29.1 µM [rising, single point]
58 | CCOC(=O)C1=C(CC)Nc2ccccc2N=C1NC(=O)c1ccc(C)c(S(=O)(=O)N2CCOCC2)c1 | 125 | 20.6 µM [rising, partial curve] | –
59 | Cc1cccc(NC(=O)CCNC(=O)c2ccco2)c1C | -61.3 | 0.0058 µM [falling, full curve, poor fit] | –
60 | Cn1c(=O)c2ncn(CC(=O)N=Nc3c(O)[nH]c4ccccc34)c2n(C)c1=O | -116 | – | –
61 | O=S(=O)(c1ccc(OC(F)(F)F)cc1)N1CCC(O)(c2cccc(C(F)(F)F)c2)CC1 | 21.3 | – | 29.1 µM [rising, single point]
62 | NNC(=O)c1[nH]c2ccc([N+](=O)[O-])cc2c1-c1ccccc1 | -2.84 | 1.84 µM [rising, partial curve] | –
63 | O=C(c1ccc(Cl)cc1)N1N=CCC1(O)c1ccc(Cl)cc1 (configuration not stated) | -27.5 | 1.16 µM [falling, full curve, poor fit] | 18.4 µM [falling, partial curve]
64 | COc1ccc(NC(=O)COc2cccc3c2OC(C)(C)C3)c(OC)c1 | 8.55 | 6.51 µM [falling, single point] | –
